Measurements reported in US20160009782A1.
Results are given in words; binding and its absence hold for the method and conditions named. Binding can be weak; no strength is given.

How the values were obtained:
[1] = target: T1, endogenous mouse PirB (cortical neurons and brain extracts) (mouse) (UniProt P97484); assay: immunoprecipitation of PirB from mouse forebrain lysate (P30), Western blot for PP2B
T1 sequence: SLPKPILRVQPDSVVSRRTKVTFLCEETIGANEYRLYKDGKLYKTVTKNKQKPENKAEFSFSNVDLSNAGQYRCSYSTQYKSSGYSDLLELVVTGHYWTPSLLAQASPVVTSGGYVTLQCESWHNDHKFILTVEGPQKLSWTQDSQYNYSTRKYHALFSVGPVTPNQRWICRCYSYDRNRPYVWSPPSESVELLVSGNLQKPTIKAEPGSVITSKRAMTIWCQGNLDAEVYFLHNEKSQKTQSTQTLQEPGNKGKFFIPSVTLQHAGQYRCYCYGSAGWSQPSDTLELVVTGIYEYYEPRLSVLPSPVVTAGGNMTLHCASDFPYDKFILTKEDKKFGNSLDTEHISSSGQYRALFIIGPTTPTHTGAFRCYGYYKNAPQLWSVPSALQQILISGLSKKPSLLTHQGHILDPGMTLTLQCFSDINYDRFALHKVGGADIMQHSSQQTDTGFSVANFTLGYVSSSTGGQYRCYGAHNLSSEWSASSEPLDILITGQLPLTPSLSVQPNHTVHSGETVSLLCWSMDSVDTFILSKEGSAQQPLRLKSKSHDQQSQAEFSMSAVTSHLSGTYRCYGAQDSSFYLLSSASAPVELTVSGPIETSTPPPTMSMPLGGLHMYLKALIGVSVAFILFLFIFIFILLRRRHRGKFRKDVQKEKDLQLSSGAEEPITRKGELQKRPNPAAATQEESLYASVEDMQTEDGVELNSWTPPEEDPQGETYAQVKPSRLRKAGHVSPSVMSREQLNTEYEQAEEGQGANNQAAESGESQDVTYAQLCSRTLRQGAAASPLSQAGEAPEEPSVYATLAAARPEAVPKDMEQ

[2] = target: T1, endogenous mouse PirB (cortical neurons and brain extracts) (mouse); assay: immunoprecipitation of PirB from mouse forebrain lysate (P30), Western blot for PP2C

Substance | binding [1] | binding [2]
protein phosphatase PP2B/calcineurin (endogenous, mouse forebrain) (enzyme) | binds | –
protein phosphatase PP2C (endogenous, mouse forebrain) (enzyme) | – | binds
